From PubChem BioAssay AID192 (DTP/NCI, 2004) come the findings set out here.

In the assay the test system is BDF1 mice, B16 melanoma ip, median survival T/C. Put plainly: NCI In Vivo Anticancer Drug Screen. Data for tumor model B16 Melanoma (intraperitoneal) in B6D2F1 (BDF1) mice. The note with it: T/C endpoint: median survival time, higher T/C = longer survival. In a few lines: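 Read-out: survival or tumor size, given as treated/control ratio. Controls received vehicle only; animals bore transplantable tumors.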

Where [1] appears, read: dose: 2.0 mg/kg/injection, schedule: Q01DX009 (ip), vehicle: Klucel (hydroxypropylcellulose) (HPC).
Setting [2] is: dose: 8.0 mg/kg/injection, schedule: Q01DX009 (ip), vehicle: Klucel (hydroxypropylcellulose) (HPC).
Setting [3] is: dose: 16.0 mg/kg/injection, schedule: Q01DX009 (ip), vehicle: Klucel (hydroxypropylcellulose) (HPC).
[4] abbreviates: dose: 30.0 mg/kg/injection, schedule: Q01DX001 (ip), vehicle: Klucel (hydroxypropylcellulose) (HPC).
Setting [5] is: dose: 60.0 mg/kg/injection, schedule: Q01DX001 (ip), vehicle: Klucel (hydroxypropylcellulose) (HPC).
Where [6] appears, read: dose: 60.0 mg/kg/injection, schedule: Q01DX001 (ip), vehicle: saline.
The mark [7] stands for this setting: dose: 100.0 mg/kg/injection, schedule: Q01DX009 (ip), vehicle: saline with Tween-80.

The list does not hold the whole screen: it is rich in T/C values a quarter to a half above the control, in often repeated tests (any T/C) and in doses without a T/C. Further doses and runs are listed elsewhere. T/C is the treated group as % of the vehicle group. Some entries give survivors of the animals treated and no T/C: the source files T/C as zero there, which appears to mark a toxic dose or a test without result, not a measured value. Some survivor counts are full or nearly so, which does not show that the dose was tolerated: the source hardly ever lists a survival T/C far under the control, and the zero likely stands for such cases as well. Survivors were counted at the toxicity check, usually on the fifth day, unless a day is given; later deaths do not show. Schedule codes are those of the source, taken here to give the interval after Q, in days (D) or hours (H), and the number of doses after X. Counts like (3×) stand for listed records that agree. Some entries were tested several times; the values are given in rising order. For survival time, this PubChem deposit counts one and a half times the control or more as active, and values a quarter to a half above the control carry no call in these data; other NCI protocols may use other cut-offs. Some T/C values carry the count of animals alive at the toxicity check (mostly the fifth day); without a count, all were alive then.

For the molecule `CC1CCC(NC(=O)N(CCCl)N=O)CC1` (stereo not drawn), the T/C (dose: 1.0 mg/kg/injection, schedule: Q01DX009 (ip), vehicle: Klucel (hydroxypropylcellulose) (HPC)) is 96 (2×), 102 (2×), 107, 111, 117, 124 % of control; the T/C under setting [1] is 100, 101, 105 (5×), 107, 108, 110 (2×), 112, 113 (2×), 117, 118, 118 [5 of 6 alive], 120, 122, 125, 126, 171, 195 % of control; the T/C (dose: 2.0 mg/kg/injection, schedule: Q01DX009 (ip), vehicle: saline with Tween-80, evaluated on day 45) is 102, 105, 159 % of control; the T/C (dose: 2.0 mg/kg/injection, schedule: Q01DX009 (ip), vehicle: saline with Tween-80, evaluated on day 60) was 98, 100, 110 % of control (2×); the T/C (dose: 2.0 mg/kg/injection, schedule: Q01DX009 (ip), vehicle: saline) is listed as 94, 97, 102, 110 % of control; the T/C (dose: 4.0 mg/kg/injection, schedule: Q01DX009 (ip), vehicle: Klucel (hydroxypropylcellulose) (HPC)) is 102, 105, 110 (3×), 117 [9 of 10 alive], 120, 122, 123, 125, 125 [5 of 6 alive], 127, 128, 129, 131, 132, 136, 138, 139, 141, 157, 158, 168, 187 % of control. Further, the T/C was 127 % of control (dose: 4.0 mg/kg/injection, schedule: Q01DX009 (ip), vehicle: other); 105 [5 of 6 alive], 116, 140 % of control (dose: 4.0 mg/kg/injection, schedule: Q01DX009 (ip), vehicle: saline with Tween-80, evaluated on day 45); 95, 105, 107, 108 % of control (dose: 4.0 mg/kg/injection, schedule: Q01DX009 (ip), vehicle: saline with Tween-80, evaluated on day 60); 95, 97, 110, 115 % of control (dose: 4.0 mg/kg/injection, schedule: Q01DX009 (ip), vehicle: saline); 130 % of control (dose: 7.5 mg/kg/injection, schedule: Q01DX001 (ip), vehicle: saline); 136 % of control (dose: 7.5 mg/kg/injection, schedule: Q04DX003 (ip), vehicle: other). The T/C runs as follows: under setting [2], 102, 111, 112, 117, 122, 128, 135, 143, 144, 150, 160, 165 (3×), 165 [5 of 6 alive], 167, 174, 194 (2×), 220, 333 % of control; (dose: 8.0 mg/kg/injection, schedule: Q01DX009 (ip), vehicle: saline with Tween-80, evaluated on day 45) 105 and 140 % of control (2×); (dose: 8.0 mg/kg/injection, schedule: Q01DX009 (ip), vehicle: saline with Tween-80, evaluated on day 60) 126, 133, 153, 178 % of control; (dose: 8.0 mg/kg/injection, schedule: Q01DX009 (ip), vehicle: saline) 121, 126, 139, 194 % of control; (dose: 14.4 mg/kg/injection, schedule: Q01DX001 (ip), vehicle: distilled water + Tween-80 + alcohol) 131 % of control; (dose: 15.0 mg/kg/injection, schedule: Q01DX001 (ip), vehicle: Klucel (hydroxypropylcellulose) (HPC)) 100 [5 of 6 alive], 105, 106, 107, 110 [4 of 6 alive], 112, 114 (2×), 117 (2×), 118, 128, 150, 151, 168, 173, 177, 202, 210 % of control. The T/C is 90, 117 [5 of 6 alive], 119, 135 % of control [5 of 6 alive] (dose: 15.0 mg/kg/injection, schedule: Q01DX001 (ip), vehicle: saline with Tween-80, evaluated on day 45); 97, 98, 100, 155 % of control (dose: 15.0 mg/kg/injection, schedule: Q01DX001 (ip), vehicle: saline with Tween-80, evaluated on day 60); 103, 110 [5 of 6 alive], 121, 152, 167 % of control (dose: 15.0 mg/kg/injection, schedule: Q01DX001 (ip), vehicle: saline); 92, 94, 103 [4 of 6 alive], 107 [5 of 6 alive], 110, 111, 158, 165, 169, 192 [5 of 6 alive], 220 % of control under setting [3]; 110 % of control (dose: 16.0 mg/kg/injection, schedule: Q01DX009 (ip), vehicle: saline with Tween-80, evaluated on day 45); 92 and 150 % of control (dose: 16.0 mg/kg/injection, schedule: Q01DX009 (ip), vehicle: saline with Tween-80, evaluated on day 60). Moreover, the T/C by setting is: (dose: 16.0 mg/kg/injection, schedule: Q01DX009 (ip), vehicle: saline) 142 % of control; under setting [4], 90, 107 [4 of 6 alive], 117 [5 of 6 alive], 125, 126, 132 (3×), 136, 153, 156, 184 (2×), 193, 194, 195, 218, 333 % of control; (dose: 30.0 mg/kg/injection, schedule: Q01DX001 (ip), vehicle: saline with Tween-80, evaluated on day 45) 120, 125, 133, 155 % of control [5 of 6 alive]; (dose: 30.0 mg/kg/injection, schedule: Q01DX001 (ip), vehicle: saline with Tween-80, evaluated on day 60) 113, 116, 136, 194 % of control; (dose: 30.0 mg/kg/injection, schedule: Q01DX001 (ip), vehicle: saline) 119, 137, 178, 219, 228 % of control; under setting [5], 91, 93 [5 of 6 alive], 95, 100, 106, 111, 115 [5 of 6 alive], 125, 131, 147, 173, 257, 285, 333 % of control. In addition, the T/C (dose: 60.0 mg/kg/injection, schedule: Q01DX001 (ip), vehicle: saline with Tween-80, evaluated on day 45) was 95 and 120 % of control; the T/C (dose: 60.0 mg/kg/injection, schedule: Q01DX001 (ip), vehicle: saline with Tween-80, evaluated on day 60) is 169 and 215 % of control; the T/C under setting [6] is reported as 94, 134, 142, 234 % of control. Further, the survivor count reads like this: under setting [1], 6 of 6; under setting [2], 10 of 10 and 6 of 6; under setting [3], 8 of 10, 10 of 10, 6 of 6; (dose: 16.0 mg/kg/injection, schedule: Q01DX009 (ip), vehicle: saline with Tween-80) 6 of 6 (2×); under setting [4], 6 of 6; (dose: 32.0 mg/kg/injection, schedule: Q01DX009 (ip), vehicle: Klucel (hydroxypropylcellulose) (HPC)) 10 of 10. Besides, the survivor count is 8 of 10 (dose: 40.0 mg/kg/injection, schedule: Q04DX003 (ip), vehicle: other); 5 of 6 and 6 of 6 under setting [5]; 5 of 6 and 6 of 6 (dose: 60.0 mg/kg/injection, schedule: Q01DX001 (ip), vehicle: saline with Tween-80); 6 of 6 under setting [6]; 10 of 10 (dose: 64.0 mg/kg/injection, schedule: Q01DX009 (ip), vehicle: Klucel (hydroxypropylcellulose) (HPC)).

Consider `OCCOCCN1CCN(CCCN2c3ccccc3Sc3ccc(C(F)(F)F)cc32)CC1`, for which the survivor count was 10 of 10 (dose: 12.8 mg/kg/injection, schedule: Q01DX009 (ip), vehicle: saline) and 9 of 10 (dose: 1.5 micrograms/kg/injection, schedule: Q01DX009 (ip), vehicle: saline).

Consider `CC1=CC(=NN=c2cc(C)n([O-])c(C)c2)C=C(C)[N+]1=O`, for which the T/C under setting [7] is 132 % of control and the T/C (dose: 200.0 mg/kg/injection, schedule: Q01DX009 (ip), vehicle: saline with Tween-80) is 130 % of control. Besides, under “dose: 400.0 mg/kg/injection, schedule: Q01DX009 (ip), vehicle: saline with Tween-80”, the survivor count is 10 of 10.

Turning to `O=C(Nc1ccccc1C(F)(F)F)c1ccc(Cl)cc1`, the survivor count is, setting by setting: (dose: 100.0 mg/kg/injection, schedule: Q01DX009 (ip), vehicle: Klucel (hydroxypropylcellulose) (HPC)) 10 of 10; (dose: 200.0 mg/kg/injection, schedule: Q01DX009 (ip), vehicle: Klucel (hydroxypropylcellulose) (HPC)) 10 of 10; (dose: 400.0 mg/kg/injection, schedule: Q01DX009 (ip), vehicle: Klucel (hydroxypropylcellulose) (HPC)) 10 of 10.

In the case of `S=C=NCCc1ccccc1`, the survivor count under setting [7] is on record as 4 of 10.
